This is one part of the list. Shown are side measurements of this screen, not its main read-out; they come without a call. Most of these compounds were active or inconclusive in the main read-out, so they are no random draw. Potencies come from curve fits of mixed quality, noted in brackets.

The nature of the assay: IkB Signaling. To be noted: ABC-DLBCL IkBa-CBG/CBR dual luciferase ratio (green luciferase fused to IkBa over red control in OCI-Ly3 lymphoma cells), 4 h; measured here: control luc red channel unless noted. The procedure, abridged: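 Curves were fitted separately to fusion (green), unfused (red) and ratio luminescence, then classed by r2, magnitude and activity. Cells: OCI-Ly3, 4 h compound plus doxycycline at 37C; 10 uM MG-132 defined full response.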
For the molecule `Cc1ccc2sc(N3CCN(C(=O)CCS(=O)(=O)c4ccc(F)cc4)CC3)nc2c1C`, the AC50 (as a rule, the midpoint of the concentration-response curve, whichever way the signal moves) was 39.8 µM [falling, single point].

Regarding `CCOC(=O)c1ccc(NC(=O)c2ncn(-c3ccccc3)n2)cc1`, the AC50 was 0.501 µM [falling, full curve].

With `Cc1ccc(-c2nc(-c3cc4cccc(OCc5cccc(C)c5)c4oc3=O)no2)cc1`, the AC50 was 3.16 µM [falling, partial curve].

`CCc1c(C)nc2nncn2c1Nc1ccc(C(C)C)cc1`: the AC50 is 31.6 µM [falling, partial curve, poor fit].

Consider `Cc1cccc(N2CC(C)Cn3c2nc2c3c(=O)n(CC(=O)OCc3ccccc3)c(=O)n2C)c1` (stereo not given), for which the AC50 is 0.794 µM [falling, full curve].

Turning to `O=C(c1ccc2c(c1)N(Cc1ccccc1F)C(=O)c1ccccc1S2=O)N1CCN(c2ccccc2)CC1` (stereo not given), the AC50 was 12.6 µM [falling, partial curve].

`CCCCN1CCCc2cc(CN(CCCN3CCOCC3)C(=O)Nc3ccc(OCC)cc3)ccc21`: the AC50 is 6.31 µM [falling, single point].

As to `CCN(CC)S(=O)(=O)c1ccc2c(c1)N(CC(=O)N1CCN(c3ccccc3F)CC1)C(=O)CO2`, the AC50 is 31.6 µM [falling, single point].

For `CC1CN(c2nc3c(c(=O)n(Cc4ccc(Cl)c(Cl)c4)c(=O)n3C)n2C)CC(C)O1` (stereo not given), the AC50 was 15.8 µM [falling, partial curve].

For `CCOC(=O)c1ccc(Nc2ncnc3c2cnn3-c2cccc(Cl)c2)cc1`, the AC50 is 0.631 µM [falling, full curve, poor fit].

Turning to `CCN(C(=O)c1cc2c(s1)-c1ccccc1OC2)c1cc(Cl)ccc1OC`, the AC50 is 20 µM [falling, partial curve].

In the case of `CCCCC(c1nnnn1CC1CCCO1)N1CCN(c2nc3ccccc3s2)CC1` (stereo not given), the AC50 is 39.8 µM [falling, single point].

As for `CCOC(=O)Cn1nnnc1CN(Cc1ccccc1)Cc1cc2cc(CC)ccc2[nH]c1=O`, the AC50 was 20 µM [falling, partial curve, poor fit].

On to `COC(=O)c1cccc(Nc2c(-c3ccc(O)c(OC)c3)nc3nc[nH]n23)c1`, for which the AC50 was 7.94 µM [falling, single point].

Consider `COc1cccc(N2C(=O)CC(c3c[nH]c4ccccc34)C2=O)c1` (stereo not given), for which the AC50 is 0.0794 µM [falling, full curve].

With `Cc1ccc(-c2nc3cc(C(C)C)ccc3o2)cc1NC(=O)c1cccs1`, the AC50 was 0.398 µM [falling, full curve].

With `Cc1cccc(NC(=O)CSc2nc3ccc(NC(=O)c4ccco4)cc3s2)c1`, the AC50 was 10 µM [falling, partial curve].

Regarding `Cc1ccc2nc(-c3ccc(O)cc3)c(Nc3ccc4c(c3)OCO4)n2c1`, the AC50 was 12.6 µM [falling, partial curve].

Take `COc1cc(-c2nnc(SCC(=O)Nc3ccc(F)c(Cl)c3)o2)cc(OC)c1OC`: the AC50 is 25.1 µM [falling, single point].

In the case of `C=CC(=O)OCC(CO)(COC(=O)C=C)COC(=O)C=C`, the AC50 was 5.01 µM [falling, full curve].

Regarding `COc1cccc(C(=O)Nc2ccccc2OCc2cc(=O)n3cc(C)ccc3n2)c1`, the AC50 is 39.8 µM [falling, single point].

As for `Cc1oc(-c2ccc(Cl)cc2)nc1CS(=O)CC(=O)NCc1ccc(Cl)cc1` (stereo not given), the AC50 was 25.1 µM [falling, single point].

Turning to `O=C(c1ccco1)[C@@H]1[C@@H]2C(=O)N(c3ccc(Br)cc3)C(=O)[C@@H]2C2c3ccccc3C=CN21` (stereo not given in full), the AC50 is 1.26 µM [falling, full curve].

Turning to `CCCN1C=CC(=C2C(=O)c3ccccc3C2=O)C=C1`, the AC50 is 3.98 µM [falling, full curve].

Take `COc1ccccc1N1CCN(C(CNC(=O)C(=O)NCCCN(C)C)c2cccnc2)CC1` (stereo not given): the concentration at half-maximal activity (AC50) was 12.6 µM [falling, partial curve].

In the case of `CCOC(=O)C1=C(CS(=O)(=O)c2c(C)cc(C)cc2C)NC(=O)NC1c1cccc(OC)c1` (stereo not given), the AC50 was 31.6 µM [falling, single point].

`COc1ccc(N(CC(=O)NCCc2cccc(C)c2)S(=O)(=O)c2c(C)nn(C)c2C)cc1`: the AC50 is 12.6 µM [falling, partial curve].

Regarding `CC(C)(C)OC(=O)NCCc1nnc(S(=O)(=O)Cc2ccc(Cl)cc2Cl)o1`, the half-maximal activity concentration (AC50) was 2 µM [falling, full curve].

In the case of `CCOc1ccc(OCC)c(NC(=O)C2CCN(S(=O)(=O)c3ccc(Br)s3)CC2)c1`, the AC50 was 25.1 µM [falling, partial curve].

Take `Cc1ccc(N2CCN(C(=O)Cc3c(C(=O)O)c(C)cn3C)CC2)c(C)c1`: the AC50 is 31.6 µM [falling, partial curve].

Regarding `Cc1cccc(NC(=O)N2CCc3c(sc4c3CCCC4)C2c2ccc(F)cc2)c1` (stereo not given), the AC50 is 2 µM [falling, full curve, poor fit].

For the molecule `Cc1cc(C(=O)N2CCN(C(c3ccccc3)c3ccccc3)CC2)no1`, the AC50 is 12.6 µM [falling, partial curve].

Take `CCc1ccc(NC(=O)C2CCN(C(=O)N3CC(CC)Oc4ccccc43)CC2)cc1` (stereo not given): the AC50 was 39.8 µM [falling, single point].

Turning to `COc1cccc(NC(=O)CCNS(=O)(=O)c2ccc(Br)s2)c1`, the AC50 is 20 µM [falling, partial curve].

On to `CCc1nn(CC(=O)N2CCCCC2)c(=O)c2cc3sccc3n12`, for which the AC50 is 2.51 µM [rising, full curve, poor fit].

With `COc1ccc(CNC(=O)Cc2csc3ccccc23)cc1OC`, the AC50 is 7.94 µM [falling, partial curve].

Consider `CC(NC(=O)c1cc(Sc2ccc(F)cc2F)nc2ccccc12)c1ccccc1` (stereo not given), for which the AC50 is 12.6 µM [falling, partial curve].

Take `CCc1ccc2oc(-c3cc(N)ccc3O)nc2c1`: the AC50 is 20 µM [falling, single point].

In the case of `Cc1nc2ncnn2c(Nc2ccc3c(c2)OCO3)c1Cc1ccccc1`, the AC50 was 6.31 nM [rising, full curve, poor fit] [measured here: IkB-luc green channel].

For `Cc1cn2c(=O)c(S(=O)(=O)NCCc3ccccc3)c(C)nc2s1`, the half-maximal activity concentration (AC50) is 39.8 µM [falling, single point].

(Values after PubChem BioAssay AID445 (National Center for Advancing Translational Sciences (NCATS), 2006).)
